Measurements published in US20120294871A1, “MODULATION OF GPCR-MEDIATED CAMP PRODUCTION THROUGH LRP6 AND ITS THERAPEUTIC APPLICATION” (THE JOHNS HOPKINS UNIVERSITY, priority 2011, published 2012).
No constants are given. Whether binding was seen depends on the method and setting. Binding seen in cells or lysates may run through a third protein. Some entries that bind do so weakly or less than the wild type. Where a sequence is shown, tags or fusion partners need not be part of it.

Protein sequences, listed by entry. Tags and fused reporters are not part of them. Residues count along the entry.
UniProt P63092, residues 2-394: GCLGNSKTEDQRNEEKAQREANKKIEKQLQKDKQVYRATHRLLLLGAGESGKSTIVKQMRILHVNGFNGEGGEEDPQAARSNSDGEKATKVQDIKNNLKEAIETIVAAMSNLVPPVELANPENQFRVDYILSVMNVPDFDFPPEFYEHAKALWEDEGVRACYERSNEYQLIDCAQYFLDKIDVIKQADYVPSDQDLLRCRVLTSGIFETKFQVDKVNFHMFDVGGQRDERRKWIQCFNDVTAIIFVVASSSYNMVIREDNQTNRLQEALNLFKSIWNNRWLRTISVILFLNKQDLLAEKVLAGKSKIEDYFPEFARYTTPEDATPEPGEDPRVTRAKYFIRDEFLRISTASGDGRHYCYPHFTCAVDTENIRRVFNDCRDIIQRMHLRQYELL

Tests used:
[1] = biological target: Gαs (endogenous, from HEK 293 cell lysates) (human) (UniProt P63092); experiment: GST pull-down from HEK 293 cell lysates
[2] = biological target: Gαs (endogenous, from HEK 293 cell lysates) (human) (UniProt P63092); experiment: GST pull-down from HEK 293 cell lysates, Western blot for Gαs

B1: Glutathione S-transferase (GST)-fused cytoplasmic domain of LRP6 (protein, not shown: a dimerising Fc or GST)
chain: CQRMLCPRMKGDGETMTNDYVVHGPASVPLGYVPHPSSLSGSLPGMSRGKSMISSLSIMGGSSGPPYDRAHVTGASSSSSSSTKGTYFPAILNPPPSPATERSHYTMEFGYSSNSPSTHRSYSYRPYSYRHFAPPTTPCSTDVCDSDYAPSRRMTSVATAKGYTSDLNYDSEPVPPPPTPRSQYLSAEENYESCPPSPYTERSYSHHLYPPPPSPCTDSS
- binding [1]: binds
- binding [2]: binds
